# Results from the supplement of paper PMC8728848.
# The other results are listed elsewhere or left out.
# Columns and labels:
# Test in all cases: glycan array binding signal (z-score within array); higher = stronger binding
# Conditions in all cases: glycan notation: IUPAC condensed, linker removed
# [1] = target: Neu5Ac(a2-6)Gal(b1-4)GlcNAc(b1-3)GalNAc
# In short: (§1)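 Arrays were curated from the Consortium for Functional Glycomics database, 3228 in total, and kept only where the protein sequence was available. Binding is expressed as a within-array Z-score. This score was averaged across arrays of the same protein sequence at different concentrations or buffers and across linkers, and negative values can be read as non-binding.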
# [2] = target: Neu5Ac(a2-6)Gal(b1-4)GlcNAc(b1-3)[Neu5Ac(a2-6)Gal(b1-4)GlcNAc(b1-6)]GalNAc
# In short: as §1
# [3] = target: Neu5Ac(a2-6)Gal(b1-4)GlcNAc(b1-6)GalNAc
# In short: as §1
# [4] = target: Neu5Ac(a2-6)Gal(b1-4)GlcNAc(b1-6)[Gal(b1-3)GlcNAc(b1-3)]Gal(b1-4)Glc
# In short: as §1
# [5] = target: Neu5Ac(a2-6)Gal(b1-4)GlcNAc(b1-6)[Gal(b1-3)]GalNAc
# In short: as §1
# [6] = target: Neu5Ac(a2-6)Gal(b1-4)GlcNAc6S
# In short: as §1
# Neu5Ac(a2-6)GalNAc = target: Neu5Ac(a2-6)GalNAc
# In short: as §1
# [7] = target: Neu5Ac(a2-6)GalNAc(b1-4)GlcNAc
# In short: as §1
# [8] = target: Neu5Ac(a2-6)GalNAc(b1-4)GlcNAc6S
# In short: as §1
# [9] = target: Neu5Ac(a2-6)GlcNAc(b1-4)GlcNAc
# In short: as §1
# [10] = target: Neu5Ac(a2-6)GlcNAc(b1-4)GlcNAc(b1-4)GlcNAc
# In short: as §1
# Neu5Ac(a2-8)Neu5Ac = target: Neu5Ac(a2-8)Neu5Ac
# In short: as §1
# [11] = target: Neu5Ac(a2-8)Neu5Ac(a2-3)Gal(b1-3)GalNAc(b1-4)[Neu5Ac(a2-3)]Gal(b1-4)Glc
# In short: as §1
# [12] = target: Neu5Ac(a2-8)Neu5Ac(a2-3)Gal(b1-3)GalNAc(b1-4)[Neu5Ac(a2-8)Neu5Ac(a2-3)]Gal(b1-4)Glc
# In short: as §1
# [13] = target: Neu5Ac(a2-8)Neu5Ac(a2-3)Gal(b1-4)Glc
# In short: as §1
# [14] = target: Neu5Ac(a2-8)Neu5Ac(a2-3)Gal(b1-4)GlcNAc
# In short: as §1
# [15] = target: Neu5Ac(a2-8)Neu5Ac(a2-3)[Gal(b1-3)GalNAc(b1-4)]Gal(b1-4)Glc
# In short: as §1
# [16] = target: Neu5Ac(a2-8)Neu5Ac(a2-3)[GalNAc(b1-4)]Gal(b1-4)Glc
# In short: as §1
# [17] = target: Neu5Ac(a2-8)Neu5Ac(a2-8)Neu5Ac
# In short: as §1
# [18] = target: Neu5Ac(a2-8)Neu5Ac(a2-8)Neu5Ac(a2-3)Gal(b1-4)Glc
# In short: as §1
# [19] = target: Neu5Ac(a2-8)Neu5Ac(a2-8)Neu5Ac(a2-3)[Gal(b1-3)GalNAc(b1-4)]Gal(b1-4)Glc
# In short: as §1
# [20] = target: Neu5Ac(a2-8)Neu5Ac(a2-8)Neu5Ac(a2-3)[GalNAc(b1-4)]Gal(b1-4)Glc
# In short: as §1
# [21] = target: Neu5Ac(a2-8)Neu5Ac(a2-8)Neu5Ac(a2-8)Neu5Ac(a2-3)[GalNAc(b1-4)]Gal(b1-4)Glc
# In short: as §1
# [22] = target: Neu5Ac(a2-8)Neu5Gc(a2-3)Gal(b1-4)GlcNAc
# In short: as §1
# [23] = target: Neu5Ac(b2-6)Gal(b1-4)GlcNAc
# In short: as §1
# Neu5Ac(b2-6)GalNAc = target: Neu5Ac(b2-6)GalNAc
# In short: as §1
# [24] = target: Neu5Ac9Ac(a2-3)Gal(b1-3)GlcNAc
# In short: as §1
# [25] = target: Neu5Ac9Ac(a2-3)Gal(b1-4)GlcNAc
# In short: as §1
# [26] = target: Neu5Ac9Ac(a2-6)Gal(b1-4)GlcNAc
# In short: as §1
# [27] = target: Neu5Gc(a2-3)Gal(b1-3)GlcNAc
# In short: as §1
# [28] = target: Neu5Gc(a2-3)Gal(b1-3)[Fuc(a1-4)]GlcNAc
# In short: as §1
# Neu5Gc(a2-3)Gal(b1-4)Glc = target: Neu5Gc(a2-3)Gal(b1-4)Glc
# In short: as §1
# [29] = target: Neu5Gc(a2-3)Gal(b1-4)GlcNAc
# In short: as §1
# [30] = target: Neu5Gc(a2-3)Gal(b1-4)GlcNAc(b1-3)Gal(b1-4)GlcNAc(b1-2)Man(a1-3)[Neu5Gc(a2-3)Gal(b1-4)GlcNAc(b1-3)Gal(b1-4)GlcNAc(b1-2)Man(a1-6)]Man(b1-4)GlcNAc(b1-4)GlcNAc
# In short: as §1
# [31] = target: Neu5Gc(a2-3)Gal(b1-4)[Fuc(a1-3)]GlcNAc
# In short: as §1
# [32] = target: Neu5Gc(a2-6)Gal(b1-4)GlcNAc
# In short: as §1
# Neu5Gc(a2-6)GalNAc = target: Neu5Gc(a2-6)GalNAc
# In short: as §1
# [33] = target: Neu5Gc(a2-8)Neu5Ac(a2-3)Gal(b1-4)GlcNAc
# In short: as §1
# [34] = target: Neu5Gc(a2-8)Neu5Gc(a2-3)Gal(b1-4)GlcNAc
# In short: as §1
# [35] = target: Neu5Gc(a2-8)Neu5Gc(a2-3)Gal(b1-4)GlcNAc(b1-3)Gal(b1-4)GlcNAc
# In short: as §1
# [36] = target: Neu5Gc(a2-8)Neu5Gc(a2-6)Gal(b1-4)GlcNAc
# In short: as §1
# [37] = target: Neu5Gc(b2-6)Gal(b1-4)GlcNAc
# In short: as §1
binder,measurement,setting,value
"Gal 10 (Homo sapiens), Q05315 (protein) MSLLPVPYTEAASLSTGSTVTIKGRPLVCFLNEPYLQVDFHTEMKEESDIVFHFQVCFGRRVVMNSREYGAWKQQVESKNMPFQDGQEFELSISVLPDKYQVMVNGQSSYTFDHRIKPEAVKMVQVWRDISLTKFNVSYLKR",glycan array binding signal (z-score),[1],-0.203
same,glycan array binding signal (z-score),[2],-1.2
same,glycan array binding signal (z-score),[3],0.274
same,glycan array binding signal (z-score),[4],0.056
same,glycan array binding signal (z-score),[5],-0.081
same,glycan array binding signal (z-score),[6],0.192
same,glycan array binding signal (z-score),Neu5Ac(a2-6)GalNAc,-1
same,glycan array binding signal (z-score),[7],-0.642
same,glycan array binding signal (z-score),[8],0.07
same,glycan array binding signal (z-score),[9],0.514
same,glycan array binding signal (z-score),[10],0.144
same,glycan array binding signal (z-score),Neu5Ac(a2-8)Neu5Ac,-0.579
same,glycan array binding signal (z-score),[11],-0.754
same,glycan array binding signal (z-score),[12],-0.741
same,glycan array binding signal (z-score),[13],-0.158
same,glycan array binding signal (z-score),[14],1.21
same,glycan array binding signal (z-score),[15],-0.37
same,glycan array binding signal (z-score),[16],0.591
same,glycan array binding signal (z-score),[17],-0.401
same,glycan array binding signal (z-score),[18],-0.112
same,glycan array binding signal (z-score),[19],-0.351
same,glycan array binding signal (z-score),[20],-0.414
same,glycan array binding signal (z-score),[21],0.562
same,glycan array binding signal (z-score),[22],0.008
same,glycan array binding signal (z-score),[23],0.306
same,glycan array binding signal (z-score),Neu5Ac(b2-6)GalNAc,0.803
same,glycan array binding signal (z-score),[24],-0.819
same,glycan array binding signal (z-score),[25],-0.479
same,glycan array binding signal (z-score),[26],-0.632
same,glycan array binding signal (z-score),[27],-0.31
same,glycan array binding signal (z-score),[28],-0.457
same,glycan array binding signal (z-score),Neu5Gc(a2-3)Gal(b1-4)Glc,-0.539
same,glycan array binding signal (z-score),[29],-0.004
same,glycan array binding signal (z-score),[30],-0.355
same,glycan array binding signal (z-score),[31],0.205
same,glycan array binding signal (z-score),[32],-0.495
same,glycan array binding signal (z-score),Neu5Gc(a2-6)GalNAc,0.053
same,glycan array binding signal (z-score),[33],-0.6
same,glycan array binding signal (z-score),[34],-0.793
same,glycan array binding signal (z-score),[35],0.074
same,glycan array binding signal (z-score),[36],-0.696
same,glycan array binding signal (z-score),[37],-0.402

# Part of the list above, tab-delimited:
binder	measurement	setting	value
Gal 10 (Homo sapiens), Q05315 (protein) MSLLPVPYTEAASLSTGSTVTIKGRPLVCFLNEPYLQVDFHTEMKEESDIVFHFQVCFGRRVVMNSREYGAWKQQVESKNMPFQDGQEFELSISVLPDKYQVMVNGQSSYTFDHRIKPEAVKMVQVWRDISLTKFNVSYLKR	glycan array binding signal (z-score)	[33]	-0.6
same	glycan array binding signal (z-score)	[34]	-0.793
